In paper doi:10.1101/2020.12.15.422806:
Results are given in words; binding and its absence hold for the method and conditions named. In cells and extracts the contact can be indirect. Some entries that bind do so weakly or less than the wild type.

Chains of the proteins cited; added tags and fusions are not shown.
UniProt Q8CJG0: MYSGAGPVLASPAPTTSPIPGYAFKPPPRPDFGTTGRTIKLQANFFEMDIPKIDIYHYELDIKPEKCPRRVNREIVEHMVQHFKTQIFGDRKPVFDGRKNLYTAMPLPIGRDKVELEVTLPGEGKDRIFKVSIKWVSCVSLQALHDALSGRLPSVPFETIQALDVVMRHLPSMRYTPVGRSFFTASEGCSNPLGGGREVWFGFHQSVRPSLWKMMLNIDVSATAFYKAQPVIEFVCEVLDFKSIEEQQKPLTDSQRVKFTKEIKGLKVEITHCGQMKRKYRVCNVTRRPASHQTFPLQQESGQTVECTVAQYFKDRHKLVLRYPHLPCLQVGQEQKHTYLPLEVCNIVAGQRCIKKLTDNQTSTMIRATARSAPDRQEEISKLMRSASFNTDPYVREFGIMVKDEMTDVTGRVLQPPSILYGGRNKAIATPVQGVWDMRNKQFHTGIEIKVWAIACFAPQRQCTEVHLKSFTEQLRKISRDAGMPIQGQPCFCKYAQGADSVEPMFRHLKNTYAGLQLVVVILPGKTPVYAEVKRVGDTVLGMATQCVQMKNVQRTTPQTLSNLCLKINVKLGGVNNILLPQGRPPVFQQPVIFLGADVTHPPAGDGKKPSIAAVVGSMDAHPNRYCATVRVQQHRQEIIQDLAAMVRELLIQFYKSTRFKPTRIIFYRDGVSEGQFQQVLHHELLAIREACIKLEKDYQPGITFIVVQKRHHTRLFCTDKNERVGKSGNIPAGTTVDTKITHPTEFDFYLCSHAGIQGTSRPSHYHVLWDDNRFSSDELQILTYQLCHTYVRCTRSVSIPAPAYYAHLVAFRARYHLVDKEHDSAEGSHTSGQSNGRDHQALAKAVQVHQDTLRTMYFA
UniProt O88569: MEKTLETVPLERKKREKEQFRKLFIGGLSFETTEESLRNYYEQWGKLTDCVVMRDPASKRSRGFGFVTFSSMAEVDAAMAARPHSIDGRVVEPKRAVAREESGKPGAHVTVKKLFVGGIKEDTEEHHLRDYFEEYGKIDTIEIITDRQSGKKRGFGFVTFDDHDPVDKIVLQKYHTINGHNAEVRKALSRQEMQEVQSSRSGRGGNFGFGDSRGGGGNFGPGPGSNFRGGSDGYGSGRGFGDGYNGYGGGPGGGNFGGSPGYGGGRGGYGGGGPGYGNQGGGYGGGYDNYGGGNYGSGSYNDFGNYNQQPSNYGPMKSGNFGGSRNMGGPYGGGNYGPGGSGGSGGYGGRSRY

Target: Argonaute 2 (mouse (endogenous in NSC-34)) (UniProt Q8CJG0)
Experiment: co-IP

binding: binds
Substance: HNRNPA2B1 (from UniProt O88569 1-353)
